Measurements reported in publication PMC10163288.
This is one part of the list.

B1: il2ra_site1_1z92_sap_8_mot_HHH_b2_03374_af2_000000101_0001_1_20_H_._HHH_b2_03665_0001_0000500035_0000001_0_0001 (protein)
chain: SSSSDNLEAIVKVLVRVARLSEEAEEELERLARELAERGVSALEIMRLLDELAVRLAEELSSSSS
B2: il2ra_site2_3nfp_sap_9_mot_HHH_b1_05381_af2_000000150_0001_1_19_H_._HHH_b1_03255_0001_0000200011_0000001_0_0001 (protein)
chain: SSSSDKSERYLELAVELIEEALEQGDPEAARSHIEAAKLAAEALGDEEVKERLEELEELADSSSS
B3: il2ra_site2_2erj_normal_mot_HHH_b2_01204_af2_000000056_0001_19_34_H_._HHH_b2_01388_0001_0000600058_0000001_0 (protein)
chain: SSSSDEELREIYELLVRLLQAIYEGDEEEAEKLLEEVRRVIEEANNENAEEHLRFLEQELKSSSS
B4: il2ra_site2_3nfp_sap_15_mot_HHH_b2_07083_000000061_0001_42_56_H_._09051a5a5815e8c4a7a718313fa04930_0001_af2_0001_0000100001_0000001_0_0001 (protein)
chain: SSSSDEERVEELLEEAREAREEGDPRKVLEILAEAAHIAFEANNPELFFRIAELAFELMQSSSSS
B5: il2ra_site1_1z92_normal_mot_01209686ea234b34325f918445e6eade_0001_af2_000000154_0001_18_33_H_._HEEHE_1797_0001_0000200025_0000001_0 (protein)
chain: DDEEAFAKDVEVVARLAGVPSVEVREENGKISVHVEGTDEAVKLAENYVRYVAEDAGLRVEVHTH
B6: il2ra_site1_1z92_sap_29_mot_HHH_b1_02756_000000071_0001_20_37_H_._HHH_b1_00020_0001_0000200011_0000001_0_0001_af2pred_dldesign_0_af2pred (protein)
chain: VTVEELLLAAVESRDDAALRDFIRLLLRDTKDPELARQLLRILVKRLGLPEETLERLLALLDELA
B7: il2ra_site1_2b5i_normal_mot_HHH_b1_02271_000000068_0001_1_16_H_._HHH_eva_0455_0001_0000300026_0000001_0_af2pred_dldesign_0_af2pred (protein)
chain: SSSSSSSNWRELLERAEEAFKAGDAAALEALLKEAKAAGLKKTAKTIERAIEEVRSESSSSSSSS
B8: il2ra_site1_3nfp_sap_17_mot_ems_3hC_836_0002_000000087_0001_24_40_H_._HHH_b1_08246_0001_0000200015_0000001_0_0001 (protein)
chain: SRILERFVEQAEKLGNPEFAEVVKILLEVLEQDPRLREEIDRIIRELVSGELPPEEAEELARRLK
B9: il2ra_site2_2erj_sap_15_mot_HHH_b1_03107_000000098_0001_39_52_H_._HHH_b2_05540_0001_0000100002_0000001_0_0001 (protein)
chain: SSSSDEEELLERVEELIERAKEENDNRLAWEALRVAVEIAELGDEEAARRAAELLLEFFRSSSSS
B10: il2ra_site1_3nfp_normal_mot_cc4219192d8ccd35c40e7b68f9a57604_0001_af2_000000124_0001_16_32_H_._HHH_b2_07250_0001_0000900010_0000001_0_af2pred_0001_1_af2pred_swa … (protein)
chain: SSSSDALEFVEELAEKAFENNDKKQLEALYKLLRRALEKHGNPEAEEVLEKVEELLRELQSSSSS
B11: il2ra_site2_3nfp_normal_mot_HHH_b2_01406_000000272_0001_41_55_H_._HHH_b2_05555_af2_0001_0000300006_0000001_0 (protein)
chain: SSSSSSTALFELVRELAEELGLSEEQLHELLQLAAELSQRGVDIEEIEEILEEVARKLSSSSSSS
B12: il2ra_site2_2erj_sap_32_mot_HHH_b2_01204_af2_000000051_0001_19_34_H_._HHH_b1_07035_0001_0001300037_0000001_0_0001 (protein)
chain: SSSSNEELAKSIERMAEQLLEAGDPENARAALETAIRVARWANDKEVAELLEELLEEVRRRSSSS
B13: il2ra_site1_2b5i_normal_mot_HHH_b2_04910_000000118_0001_1_19_H_._HHH_b1_04799_af2_0001_0000100001_0000001_0 (protein)
chain: SSSSDELAKEAVRLFHEADELDRRGDEEEAQKVLEEALEIAEEGNSRVLIRMIRVALENFSSSSS
B14: il2ra_site2_2erj_normal_mot_89dc1dc23437faef961419e82e151d9c_0001_000000098_0001_15_32_H_._HHH_eva_0181_0001_0000100002_0000001_0_af2pred_0001_af2pred_1_swapped (protein)
chain: SSSEEEREEVREELEEIAEELGISPEFVKIAEEAWRLAVEAGADEEFARRNARFVLEALWEGSSS
B15: il2ra_site1_3nfp_normal_mot_eb5a5eebac1e5153f932cc6c3f4b2787_0001_af2_000000065_0001_18_33_H_._HHH_b2_01202_0001_0000300026_0000001_0 (protein)
chain: SSSSSDEEVEERVEELLEEARHVDPRRASRLLREAWRLAAEADDLELSELIYKFIRELVQSSSSS
B16: il2ra_site2_3nfp_sap_21_mot_HHH_b1_05627_af2_000000038_0001_43_56_H_._HHH_b1_06472_0001_0000400012_0000001_0_0001 (protein)
chain: SSSSDEVEELLKELKKLAEEGDEEEFRKVLRRIAQLIAELNDPELFAEAAQILYLFAKNQVSSSS
B17: il2ra_site1_3nfp_sap_10_mot_136a1b26558f6d63e39c8b7f62c9aa34_0001_af2_000000044_0001_17_31_H_._HHH_b2_00046_0001_0000400030_0000001_0_0001 (protein)
chain: SSSSDEEVEEEVEELLEKAKRVEDPHEAAKILHKAYRLAAELGNQELADLVYEVMHRVIKGSSSS
B18: il2ra_site2_3nfp_sap_8_mot_HHH_b2_00729_000000274_0001_42_55_H_._HHH_b1_06486_af2_0001_0000400017_0000001_0_0001 (protein)
chain: SSSSTREELKEMIELALESLESRGDEEAVERVEKLLEEFEKTGDPRIALEVYEIAREAYKSSSSS
B19: il2ra_site1_1z92_sap_21_mot_HHH_b2_02761_000000226_0001_1_18_H_._HHH_b2_05214_af2_0001_0000300031_0000001_0_0001_af2pred_0001_af2pred (protein)
chain: SAAVRDFEHSLKAGIPPEDILKAIRDALKLHGDPEAERVLQIIEELLERGVPPEEIVEILKELFK
B20: il2ra_site2_3nfp_sap_22_mot_HHH_b1_03612_af2_000000124_0001_42_57_H_._5a8f583829a5aa8bf6f84962c228dfd5_0001_af2_0001_0000100004_0000001_0_0001 (protein)
chain: SSSSNEQTEALQLALHALKLALELGDEEAAERLSRLAWELMREGDPELAEELEKLAEEVLSSSSS
B21: il2ra_site2_3nfp_normal_mot_HHH_b2_01155_000000159_0001_38_52_H_._HHH_b1_00283_af2_0001_0000200020_0000001_1 (protein)
chain: SSSSDEEARELAEEAEELAKQGDEEEVRELLARAVHIAYEKNDPELFAFVAEVAFKLWELRSSSS
B22: il2ra_site1_1z92_normal_mot_01209686ea234b34325f918445e6eade_0001_af2_000000154_0001_18_33_H_._HHH_b1_01160_af2_0001_0000100015_0000001_0_af2pred_0001_af2pred_1 … (protein)
chain: SSSNEAEKQLELSAEKALEAGYSPKSIRLALRRAVELLVREFNLSEEEREKLEQLAEELAEGSSS
B23: il2ra_site2_3nfp_sap_24_mot_HHH_b1_01193_af2_000000053_0001_43_57_H_._HHH_b1_07165_0001_0000200006_0000001_0_0001 (protein)
chain: SSSSSDKAEEYIKAALELLREATDPEVRKEHEEVIRAAIESRNNEELRELLEEIEEKLHSSSSSS
B24: il2ra_site2_2erj_normal_mot_b21041926606bcd66a54c4cea8303fc2_0001_1_af2_000000031_0001_15_29_H_._HHH_b2_06190_0001_0000100002_0000001_0_af2pred_0001_1_af2pred_s … (protein)
chain: SSSSNAEERIKELSREALKLDRNGNPEEARELLEEALRLAQENDSPAARKTIEQNLRLLGSSSSS

Biological target: il2ra, P01589
Assay: yeast display titration

Binder | apparent Kd
B1 | inactive: no binding seen
B2 | inactive: no binding seen
B3 | inactive: no binding seen
B4 | inactive: no binding seen
B5 | inactive: no binding seen
B6 | inactive: no binding seen
B7 | inactive: no binding seen
B8 | inactive: no binding seen
B9 | inactive: no binding seen
B10 | inactive: no binding seen
B11 | inactive: no binding seen
B12 | inactive: no binding seen
B13 | inactive: no binding seen
B14 | inactive: no binding seen
B15 | inactive: no binding seen
B16 | inactive: no binding seen
B17 | inactive: no binding seen
B18 | inactive: no binding seen
B19 | inactive: no binding seen
B20 | inactive: no binding seen
B21 | inactive: no binding seen
B22 | inactive: no binding seen
B23 | inactive: no binding seen
B24 | inactive: no binding seen

Random excerpt: 2 records from the list, in no set order.
Binder | apparent Kd
B2 | inactive: no binding seen
B15 | inactive: no binding seen
